Laboratory results: PubChem BioAssay AID2685 (National Center for Advancing Translational Sciences (NCATS), 2010)
Among all 320,000 compounds or so, about 2,100 (0.66%) were called active. Inconclusive results, whose numbers are uncertain, are shown with a selection of clear calls. Calls come from the whole dose curve; as a rule, active = well fitted inhibition curve with a large enough effect in the signal ratio, with a control signal flat (not every such curve was filed as active); inconclusive = small, poorly fitted or top-dose-only effect, or effect the other way, or a change in a side signal; inactive = flat fitted curve, though single readings scatter; the % refers to the signal ratio. Potencies beside an inconclusive call are fits to weak or partial responses and may not hold up.

test: qHTS Assay for Lipid Storage Modulators in Drosophila S3 Cells; settings: BODIPY lipid droplet fluorescence, 18-24 h, cells fed with added oleic acid; lipid storage change, negative = inhibition: at 46.1 µM (top of the series) unless noted
Outline: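 Drosophila S3 cells got compounds at several concentrations plus oleic acid (400 uM solution). Laser-scanning cytometry with 488 nm excitation read lipid droplets at 500-530 nm and cells at 575-640 nm. Percent activity was relative to 20 uM Triacsin C.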
% is set by controls: 0 for no effect and ±100 for the full control effect; potency is the fitted concentration of half-maximal effect.

Compound	Potency	lipid storage change, negative = inhibition
O=C1NCCCC1C(=O)N1CCN(C(=O)c2ccco2)CC1 (configuration not stated)	inconclusive: 4.6 nM [falling, full curve, poor fit]	–
Cc1ccnc(NC(=O)C2CCN(S(=O)(=O)c3ccc4ccccc4c3)CC2)c1	–	inconclusive: 34.5%
O=C(N/N=C/c1c[nH]c2ccccc12)c1ccn(Cc2ccc(Cl)cc2)n1	–	inconclusive: 43.9%
CC(C)Sc1ccc(C(=O)Nc2ccc(F)cc2F)cn1	–	inconclusive: -48.2%
Nn1c(SCC(=O)Nc2cccc(S(N)(=O)=O)c2)nnc1C1CC1	–	inconclusive: -18.4%
CNC(=O)NC(=O)C(c1ccccc1)N(C)CC1COc2ccccc2O1 (configuration not stated)	–	inconclusive: 1.39%
Cc1ccc(S(=O)(=O)Nc2nc3n(n2)C(c2ccc(Cl)cc2)CC(=O)N3)cc1 (configuration not stated)	–	inconclusive: -16.7%
COc1ccccc1CNC(=O)c1cc(C(C)C)nc2ccccc12	inconclusive: 461 nM [activator, full curve, poor fit]	–
Cc1ccc(-n2ncc3c(SCc4cccnc4)ncnc32)c(C)c1	inconclusive: 5170 nM [falling, partial curve, poor fit]	–
Fc1cccc(CCN2CCNC[C@H]2Cc2cccc3ccccc23)c1	active: 14600 nM	–
CC(Sc1ncccn1)C(=O)N1CCc2ccccc21 (configuration not stated)	–	inconclusive
CN(C)CCOc1cccc(Br)c1	–	inconclusive: -20%
COc1ccc(OC)c(NC(=O)c2ccc(CN(c3cc(Cl)ccc3C)S(=O)(=O)c3ccccc3)cc2)c1	–	inconclusive: -7.53%
Cc1nc2cc(C(=O)OCC(=O)Nc3cccc(Cl)c3)ccc2n1-c1ccccc1	–	inactive: 9.16%
CCc1c(C)nc2ncnn2c1N1CCCC(C(=O)Nc2cc(F)ccc2C)C1 (configuration not stated)	–	inconclusive: 85.2%
CN1CCN(c2ccccc2NC(=O)COc2ccccc2)CC1	inconclusive: 651 nM [falling, full curve]	–
O=C(O)C1CCN(C(=O)CSc2nc3ccccc3s2)CC1	–	inconclusive: 13.2%
COc1ccc(NC(=O)C(C)N(C)Cc2ccc3ccccc3c2)cc1 (configuration not stated)	inconclusive: 3260 nM [falling, partial curve, poor fit]	–
CN1CCN(/C=N/c2c(C#N)cnn2C)CC1	–	inconclusive: -6.18%
CCOC(=O)Cc1csc(NC(=O)COc2ccccc2OCC)n1	–	inconclusive: -23.6%
O=C(CCC(=O)Nc1ccccc1Cl)N/N=C1\CCCc2ccccc21	–	inconclusive: 0.892%
CCCN(C(=O)COC(=O)Cn1c(=O)oc2ccccc21)c1c(N)n(Cc2ccccc2)c(=O)[nH]c1=O	–	inconclusive: -7.11%

Some of these compounds in order of length of the SMILES, ascending:
Compound	Potency	lipid storage change, negative = inhibition
CN1CCN(c2ccccc2NC(=O)COc2ccccc2)CC1	inconclusive: 651 nM [falling, full curve]	–
Fc1cccc(CCN2CCNC[C@H]2Cc2cccc3ccccc23)c1	active: 14600 nM	–
Cc1ccnc(NC(=O)C2CCN(S(=O)(=O)c3ccc4ccccc4c3)CC2)c1	–	inconclusive: 34.5%
